Laboratory results taken from US5883102A, “Pharmaceutically active compounds” (Astra Pharmaceuticals Limited, priority 1995, dated 1999).
Counter-ions that a name gives are not always drawn. Some entries share one result that the patent states for a list of compounds.

Biological target: T1, human form of induced nitric oxide synthase (Homo sapiens, UniProt P35228)
T1 construct: Nitric oxide synthase is produced by cells in response to interferon; endogenous in cells; host or cells: DLD1 human colon adenocarcinoma cell line (European Collection of Animal Cell Culture, cell line number 90102540), induced with IL-1beta and IFN-gamma; crude lysate
Assay: activity against the human form of induced nitric oxide synthase, lysate of induced human colon adenocarcinoma cell line DLD1
Format: biochemical
Conditions: IL-1β and IFN-γ induced, preincubated 1 hour at 37° C., then 1 hour at 37° C., read-out: IC50 (concentration of drug substance which gives 50% enzyme inhibition in the assay)

**Q.** Which IC50 does the source give for `CCCc1ccc(C(=O)N2CCC3(CC2)N=C(N)c2c(F)cccc2N3)cc1` [Example 109, 5'-Fluoro-1-(4-propylbenzoyl)spiro[piperidine-4,2'(1'H)-quinazoline]-4'-amine hydrochloride] here?
**A.** The IC50 was < 25 µM.

**Q.** For `NC1=NC2(CCN(C(=O)c3ccno3)CC2)Nc2cccc(F)c21` [Example 135, 5'-Fluoro-1-(5-isoxazolylcarbonyl)spiro[piperidine-4,2'(1'H)-quinazoline]-4'-amine hydrochloride], which IC50 is on record?
**A.** Its IC50 is < 25 µM.

**Q.** `CCOC(=O)N1CCC2(CC1)N=C(N)c1c(F)cccc1N2C` [Example 186, Ethyl 4'-amino-5'-fluoro-1'-methylspiro[piperidine-4,2'(1'H)-quinazoline]-1-carboxylate hydrochloride] was tested. Which IC50 did it give?
**A.** Its IC50 is < 25 µM.

**Q.** For `NC1=NC2(CCN(C(=O)c3ccc(C(F)(F)F)cc3)CC2)Nc2ccccc21` [Example 79, 1-(4-(Trifluoromethyl)benzoyl)spiro[piperidine-4,2'(1'H)-quinazoline]-4'-amine hydrochloride], which IC50 is on record?
**A.** Its IC50 is < 25 µM.

**Q.** For `CCCCCOC(=O)N1CCC2(CC1)N=C(N)c1c(F)cccc1N2` [Example 198, Pentyl 4'-amino-5'-fluorospiro[piperidine-4,2'(1 'H)-quinazoline]-1-carboxylate hydrochloride], which IC50 is on record?
**A.** The IC50 was < 25 µM.

**Q.** Which IC50 does the source give for `NC1=NC(c2ccco2)Nc2cccc(F)c21` (stereo not drawn) [Example 30, 5-Fluoro-2-(2-furyl)-1,2-dihydro-4-guinazolinamine hydrochloride] here?
**A.** Its IC50 is < 25 µM.

**Q.** With `NC1=NC2(CCN(Cc3ccccc3)CC2)Nc2ccccc21` [Example 242, 1-(Phenylmethyl)spiro[piperidine-4,2'(1'H)-quinazoline]-4'-amine dihydrochloride] as the compound, how does the IC50 read?
**A.** Its IC50 is < 25 µM.

**Q.** With `NC1=NC2(CCN(C(=O)c3ccccn3)CC2)Nc2ccccc21` [Example 70, 1-(2-Pyridylcarbonyl)spiro[piperidine-4,2'(1'H)-quinazoline]-4'-amine hydrochloride] as the compound, how does the IC50 read?
**A.** The IC50 was < 25 µM.

**Q.** `NC1=NC2(CCN(C(=O)c3ccc(Cl)nc3)CC2)Nc2c(F)ccc(F)c21` [Example 166, 1-(6-Chloro-3-pyridylcarbonyl)-5',8'-difluorospiro[piperidine-4,2'(1')-quinazoline]-4'-amine hydrochloride] was tested. Which IC50 did it give?
**A.** The IC50 was < 25 µM.

**Q.** How did the IC50 turn out when `CC(C)OC(=O)N1CCC2(CC1)N=C(N)c1c(F)cccc1N2` [Example 196, 1-Methylethyl 4'-amino-5'-fluorospiro[piperidine-4,2'(1'H)-quinazoline]-1-carboxylate hydrochloride] was run?
**A.** Its IC50 is < 25 µM.

**Q.** How did the IC50 turn out when `Cc1ccc(C(=O)N2CCC3(CC2)N=C(N)c2ccccc2N3)cc1F` [Example 74, 1-(3-Fluoro-4-methylbenzoyly)spiro[piperidine-4,2'(1'H)-quinazoline]-4'-amine hydrochloride] was run?
**A.** Its IC50 is < 25 µM.

**Q.** For `NC1=NC2(CCN(C(=O)c3ccon3)CC2)Nc2cccc(F)c21` [Example 134, 5'-Fluoro-1-(3-isoxazolylcarbonyl)spiro[piperidine-4,2'(1'H)-quinazoline]-4'-amine hydrochloride], which IC50 is on record?
**A.** The IC50 was < 25 µM.

**Q.** `NC1=NC2(CCN(C(=O)c3ccsc3)CC2)Nc2cccc(F)c21` [Example 125, 5'-Fluoro-1-(3-thienylcarbonyl)spiro[piperidine-4,2'(1'H)-quinazoline]-4'-amine hydrochloride] was tested. Which IC50 did it give?
**A.** Its IC50 is < 25 µM.

**Q.** `Cc1ccc(C(=O)N2CCC3(CC2)N=C(N)c2ccccc2N3)cc1` [Example 87, 1-(4-Methylbenzoyl)spiro[piperidine-4,2'(1'H)-quinazoline]-4'-amine hydrochloride] was tested. Which IC50 did it give?
**A.** Its IC50 is < 25 µM.

**Q.** How did the IC50 turn out when `NC1=NC(c2ncc[nH]2)Nc2ccccc21` (stereo not drawn) [Example 14, 1,2-Dihydro-2-(1H-imidazol-2-yl)-4-quinazolinamine dihydrochloride] was run?
**A.** The IC50 was < 25 µM.

**Q.** `NC1=NC2(CCN(C(=O)c3ccc(Cl)c(Cl)c3)CC2)Nc2cccc(F)c21` [Example 119, 1-(3,4-Dichlorobenzoyl)-5'-fluorospiro[piperidine-4,2'(1'H)-quinazoline]-4'-amine hydrochloride] was tested. Which IC50 did it give?
**A.** Its IC50 is < 25 µM.

**Q.** For `NC1=NC(c2nccs2)Nc2ccccc21` (stereo not drawn) [Example 15, 1,2-Dihydro-2-(2-thiazolyl)-4-quinazolinamine dihydrochloride], which IC50 is on record?
**A.** The IC50 was < 25 µM.

**Q.** `NC1=NC2(CCN(C(=O)c3cccnc3)CC2)Nc2ccccc21` [Example 85, 1-(3-Pyridylcarbonyl)spiro[piperidine-4,2'(1'H)-quinazoline]-4'-amine hydrochloride] was tested. Which IC50 did it give?
**A.** The IC50 was < 25 µM.

**Q.** For `NC1=NC2(CCN(C(=O)c3ccco3)CC2)Nc2ccccc21` [Example 58, 1-(2-Furylcarbonyl)spiro[piperidine-4,2'(1'H)-quinazoline]-4'-amine hydrochloride], which IC50 is on record?
**A.** The IC50 was < 25 µM.

**Q.** For `N#Cc1ccc(C(=O)N2CCC3(CC2)N=C(N)c2ccccc2N3)cc1` [Example 56, 1-(4-Cyanobenzoyl)spiro[piperidine-4,2'(1'H)-quinazoline]-4'-amine hydrochloride], which IC50 is on record?
**A.** Its IC50 is < 25 µM.

**Q.** Which IC50 does the source give for `CCNC(=O)N1CCC2(CC1)N=C(N)c1c(F)cccc1N2` [Example 247, 4'-Amino-N-ethyl-5'-fluorospiro[piperidine-4,2'(1'H)-quinazoline]-1-carboxamide hydrochloride] here?
**A.** The IC50 was < 25 µM.

**Q.** `CS(=O)(=O)c1ccc(C(=O)N2CCC3(CC2)N=C(N)c2ccccc2N3)cc1` [Example 80, 1-(4-(Methanesulphonyl)benzoyl)spiro[piperidine-4,2'(1'H)-quinazoline]-4'-amine hydrochloride] was tested. Which IC50 did it give?
**A.** The IC50 was < 25 µM.

**Q.** How did the IC50 turn out when `NCCCC1N=C(N)c2ccccc2N1` (stereo not drawn) [Example 48, 4-Amino-1,2-dihydro-2-quinazolinepropanamine hydrochloride] was run?
**A.** Its IC50 is < 25 µM.

**Q.** With `NC1=NC2(CCN(C(=O)c3ccc[nH]3)CC2)Nc2cccc(F)c21` [Example 132, 5'-Fluoro-1-(1H-pyrrol-2-ylcarbonyl)spiro[piperidine-4,2'(1'H)-quinazoline]-4'-amine hydrochloride] as the compound, how does the IC50 read?
**A.** The IC50 was < 25 µM.

**Q.** With `CCc1ccc(C(=O)N2CCC3(CC2)N=C(N)c2c(F)cccc2N3)cc1` [Example 108, 1-(4-Ethylbenzoyl)-5'-fluorospiro[piperidine-4,2'(1'H)-quinazoline]-4'-amine hydrochloride] as the compound, how does the IC50 read?
**A.** Its IC50 is < 25 µM.

**Q.** For `NC1=NC(c2cccs2)Nc2cccc(Cl)c21` (stereo not drawn) [Example 28, 5-Chloro-1.2-dihydro-2-(2-thienyl)-4-quinazolinamine hydrochloride], which IC50 is on record?
**A.** The IC50 was < 25 µM.

**Q.** `NC1=NC2(CCN(C(=O)c3cccs3)CC2)Nc2cccc(Cl)c21` [Example 100, 5'-Chloro-1-(2-thienylcarbonyl)spiro[pieridine-4,2'(1'H)-quinazoline]-4'-amine hydrochloride] was tested. Which IC50 did it give?
**A.** Its IC50 is < 25 µM.

**Q.** `NC1=NC2(CCN(C(=O)OCCCOc3ccccc3)CC2)Nc2cccc(F)c21` [Example 226, 3-Phenoxypropyl 4'-amino-5'-fluorospiro[piperidine-4,2'(1'H)-quinazoline]-1-carboxylate hydrochloride] was tested. Which IC50 did it give?
**A.** The IC50 was < 25 µM.

**Q.** With `CCc1ccc(C(=O)N2CCC3(CC2)N=C(N)c2ccccc2N3)cc1` [Example 59, 1-(4-Ethylbenzoyl)spiro[piperidine-4,2'(1'H)-quinazoline]-4'-amine hydrochloride] as the compound, how does the IC50 read?
**A.** Its IC50 is < 25 µM.

**Q.** For `CC(C)OC(=O)N1CCC2(CC1)N=C(N)c1ccccc1N2` [Example 176, 1-Methylethyl 4'-aminospiro([piperidine-4,2'(1'H)-quinazolinel]-1-carboxylate hydrochloride], which IC50 is on record?
**A.** The IC50 was < 25 µM.

**Q.** For `CCSC(=O)N1CCC2(CC1)N=C(N)c1c(F)cccc1N2` [Example 194, S-Ethyl 4'-amino-5'-fluorospiro[piperidine-4,2'-[1'H]-quinazoline]-1-carbothioate hydrochloride], which IC50 is on record?
**A.** The IC50 was < 25 µM.

**Q.** For `CCOC(=O)N1CCC2(CC1)N=C(N)c1c(Cl)cccc1N2` [Example 178, Ethyl 4'-amino-5'-chlorospiro[piperidine-4,2'(1'H)-quinazoline]-1-carboxylate hydrochloride], which IC50 is on record?
**A.** Its IC50 is < 25 µM.

**Q.** Which IC50 does the source give for `NC1=NC2(CCN(C(=O)c3cnccn3)CC2)Nc2cccc(F)c21` [Example 145, 5'-Fluoro-1-(2-pyrazinylcarbonyl)spiro[piperidine-4,2'(1'H)-quinazoline]-4'-amine hydrochloride] here?
**A.** Its IC50 is < 25 µM.

**Q.** With `NC1=NC2(CCN(C(=O)c3cccc(O)c3)CC2)Nc2ccccc21` [Example 67, 1-(3-Hydroxybenzoyl)spiro[piperidine-4,2'(1'H)-quinazoline]4'-amine hydrochloride] as the compound, how does the IC50 read?
**A.** The IC50 was < 25 µM.

**Q.** How did the IC50 turn out when `NC1=NC(c2cccs2)Nc2ccccc21` (stereo not drawn) [Example 12, 1,2-Dihydro-2-(2-thienyl)-4-quinazolinamine hydrochloride] was run?
**A.** The IC50 was < 25 µM.

**Q.** For `CN1c2ccccc2C(N)=NC1C1CC1` (stereo not drawn) [Example 47, 2-Cyclopropyl-1,2-dihydro-1-methyl-4-quinazolinamine hydrochloride], which IC50 is on record?
**A.** The IC50 was < 25 µM.

**Q.** Which IC50 does the source give for `N#Cc1ccc(C2N=C(N)c3ccccc3N2)cc1` (stereo not drawn) [Example 16, 2-(4-Cyanophenyl)-1,2-dihydro-4-quinazolinamine hydrochloride] here?
**A.** The IC50 was < 25 µM.

**Q.** Which IC50 does the source give for `COC(=O)N1CCC2(CC1)N=C(N)c1ccccc1N2` [Example 175, Methyl 4'-ainospiro[piperidine-4,2'(1'H)-quinazoline]-1-carboxylate hydrochloride] here?
**A.** Its IC50 is < 25 µM.

**Q.** `NC1=NC(c2ccc(C(F)(F)F)cc2)Nc2cccc(F)c21` (stereo not drawn) [Example 41, 5-Fluoro-1,2-dihydro-2-(4-(trifluoromethyl)phenyl)-4-quinazolinamine hdrochloride] was tested. Which IC50 did it give?
**A.** The IC50 was < 25 µM.

**Q.** For `NC1=NC2(CCN(C(=O)c3ccc(Cl)c(I)c3)CC2)Nc2cccc(F)c21` [Example 120, 1-(4-Chloro-3-iodobenzoyl)-5'-fluorospiro[piperidine-4,2'(1'H)-quinazoline]-4'-amine hydrochloride], which IC50 is on record?
**A.** Its IC50 is < 25 µM.

**Q.** How did the IC50 turn out when `NC1=NC(c2ccc([N+](=O)[O-])s2)Nc2ccccc21` (stereo not drawn) [Example 22, 1,2-Dihydro-2-(5-nitro-2-thienyl)4-quinazolinamine hydrochloride] was run?
**A.** The IC50 was < 25 µM.

**Q.** For `NC1=NC2(CCN(C(=O)N3CCCC3)CC2)Nc2cccc(F)c21` [Example 246, 5'-Fluoro-1-(pyrrolidinylcarbonyl)spiro[piperidine-4,2'(1'H)-quinazoline]-4'-amine hydrochloride], which IC50 is on record?
**A.** Its IC50 is < 25 µM.
